The source of these data is PubChem BioAssay AID330 (DTP/NCI, 2004).

The list is a part of this screen's results and no random one: it gathers tests that were run many times, whatever their T/C, doses with no T/C, and many T/C values between a quarter and a half above the control. Further doses and runs are listed elsewhere. T/C gives the treated animals as a percentage of the vehicle group. Some doses have a count of surviving animals in place of a T/C: the source holds a T/C of zero for them, seemingly a mark for toxic or unscored doses. Some doses without a T/C left all or most animals alive at the check, yet need not have been tolerated: the source hardly ever lists a survival T/C far under the control, and the zero likely stands for such cases as well. Counts of survivors are from the toxicity check (mostly the fifth day) where no day follows; animals may have died later. Schedules are NCI's codes, read here as Q, the interval in days (D) or hours (H), X, the number of doses. Some entries hold several experiments; their values stand side by side, smallest first. Where survival is the endpoint, this PubChem deposit counts one and a half times the control or more as active, and values a quarter to a half above the control carry no call in these data; other NCI protocols may use other cut-offs. Some T/C values are followed by the survivors on the day toxicity was checked, most often the fifth; without a count, all were alive then.

The subject of this test is P388 leukemia ip, CD2F1 mice, survival T/C. The test is described as follows: NCI In Vivo Anticancer Drug Screen. Data for tumor model P388 Leukemia (intraperitoneal) in CD2F1 (CDF1) mice. To be noted: T/C endpoint: median survival time, higher T/C = longer survival.
The mark [1] stands for this setting: dose: 120.0 mg/kg/injection, schedule: Q01DX005 (ip), vehicle: saline with Tween-80.
[2] abbreviates: dose: 100.0 mg/kg/injection, schedule: Q01DX005 (ip), vehicle: saline with Tween-80.
Where [3] appears, read: dose: 240.0 mg/kg/injection, schedule: Q01DX005 (ip), vehicle: Klucel (hydroxypropylcellulose) (HPC).
Where [4] appears, read: dose: 240.0 mg/kg/injection, schedule: Q01DX005 (ip), vehicle: saline with Tween-80.
Setting [5] is: dose: 50.0 mg/kg/injection, schedule: Q01DX005 (ip), vehicle: saline.
Setting [6] is: dose: 200.0 mg/kg/injection, schedule: Q01DX005 (ip), vehicle: saline.
[7] abbreviates: dose: 400.0 mg/kg/injection, schedule: Q04DX003 (ip), vehicle: saline.
Setting [8] is: dose: 100.0 mg/kg/injection, schedule: Q01DX005 (ip), vehicle: saline.
The mark [9] stands for this setting: dose: 200.0 mg/kg/injection, schedule: Q01DX005 (ip), vehicle: Klucel (hydroxypropylcellulose) (HPC).

Consider `O=C(CS(=O)(=O)O)c1ccccc1`, for which the survivor count runs as follows: (dose: 200.0 mg/kg/injection, schedule: Q04DX002 (ip), vehicle: saline with Tween-80) 0 of 6; (dose: 400.0 mg/kg/injection, schedule: Q04DX002 (ip), vehicle: saline with Tween-80) 0 of 6.

For `CNC1C(=O)C(C)C(O)(C(CC(C)C(O)/C=C/C=C/CNC(=O)C(C)(C)C(O)\C(C)=C/C=C\C=C\Cc2cnc(C)o2)OC)C12C(=O)OC2COC` (stereo not drawn) (tested in a mixture with another compound), the survivor count by setting is: (dose: 4.0 mg/kg/injection, schedule: Q01DX005 (ip), vehicle: DMSO) 4 of 6; (dose: 8.0 mg/kg/injection, schedule: Q01DX005 (ip), vehicle: DMSO) 1 of 6; (dose: 16.0 mg/kg/injection, schedule: Q01DX005 (ip), vehicle: DMSO) 0 of 6.

As to `Brc1ccc(C2=CSC3=NCCN23)cc1`, the survivor count is on record as 0 of 6 (dose: 50.0 mg/kg/injection, schedule: Q01DX009 (ip), vehicle: saline with Tween-80); 0 of 6 (dose: 100.0 mg/kg/injection, schedule: Q01DX009 (ip), vehicle: saline with Tween-80); 0 of 6 (dose: 200.0 mg/kg/injection, schedule: Q01DX009 (ip), vehicle: saline with Tween-80).

In the case of `COc1ccc(N=N/N=c2\sc3cc(Cl)ccc3n2C)cc1`, the T/C runs as follows: (dose: 60.0 mg/kg/injection, schedule: Q01DX005 (ip), vehicle: saline with Tween-80) 131 % of control; under setting [1], 141 % of control [5 of 6 alive].

With `CN(C)C1c2cc3ccccc3nc2-c2ccccc2C1(C)C` (stereo not drawn), the survivor count under setting [2] is given as 5 of 5.

Take `CCOc1ccc(NC(=O)C2=C(C)NC(C)=C(C(=O)Nc3ccc(OCC)cc3)C2c2cccc([N+](=O)[O-])c2)cc1`: the survivor count is given as 6 of 6 (dose: 120.0 mg/kg/injection, schedule: Q01DX005 (ip), vehicle: Klucel (hydroxypropylcellulose) (HPC)) and 5 of 6 under setting [3].

`Cc1cc(-c2c(C)[nH]n(-c3nc4ccc(F)cc4s3)c2=O)n(-c2nc3ccc(F)cc3s2)n1`: the survivor count by setting is: under setting [1], 0 of 6; under setting [4], 0 of 6.

In the case of `C1CCN2COCC2C1` (stereo not drawn), under setting [5], the T/C was 127 and 131 % of control. In addition, the survivor count under setting [6] is listed as 0 of 6.

For the compound `CC(C)C(O)C1CCOS1(=O)=O` (stereo not drawn), the survivor count under setting [7] is given as 2 of 6.

As to `N=C(N)c1ccc(Oc2ccc(Oc3ccc(C(=N)N)cc3)cc2)cc1`, the T/C (dose: 12.5 mg/kg/injection, schedule: Q01DX009 (ip), vehicle: saline) was 130 % of control. Moreover, the survivor count (dose: 25.0 mg/kg/injection, schedule: Q01DX009 (ip), vehicle: saline with Tween-80) was 0 of 6.

Take `COC(=O)[CH2][Sn]([CH3])([CH3])[CH2]C(=O)OC`: the T/C by setting is: (dose: 6.25 mg/kg/injection, schedule: Q01DX005 (ip), vehicle: saline) 131 % of control; (dose: 12.5 mg/kg/injection, schedule: Q01DX005 (ip), vehicle: saline) 129 % of control; (dose: 25.0 mg/kg/injection, schedule: Q01DX005 (ip), vehicle: saline) 130 % of control; under setting [5], 138 % of control [5 of 6 alive]. The survivor count under setting [5] was 2 of 6, the survivor count under setting [8] is on record as 0 of 6 and the survivor count under setting [6] is 0 of 6.

`CCOC(CNN)OCC`: the survivor count (dose: 400.0 mg/kg/injection, schedule: Q01DX009 (ip), vehicle: saline) is given as 0 of 6.

For `CC(C)(C)C(=O)CC(=O)C(C)(C)C.[Cu]`, the survivor count (dose: 400.0 mg/kg/injection, schedule: Q04DX003 (ip), vehicle: saline with Tween-80) is recorded as 1 of 6.

In the case of `NC(Cc1ccccc1)=S=O`, under “dose: 400.0 mg/kg/injection, schedule: Q04DX002 (ip), vehicle: Klucel (hydroxypropylcellulose) (HPC)”, the survivor count is listed as 4 of 6.

`Cc1ccc(S(=O)(=O)NN=c2c3ccccc3c3nc4ccccc4nc3c3ccccc23)cc1`: the survivor count under setting [9] was 6 of 6.

Take `NC(N)=N/N=C1C=C/C(=N/N=C(N)N)C/1`: under “dose: 400.0 mg/kg/injection, schedule: Q01DX001 (ip), vehicle: saline”, the survivor count was 0 of 6.

With `COC(=O)c1nc(N)nc(C(=O)OC)c1C(=O)c1ccc(OC)cc1`, the survivor count under setting [3] is reported as 0 of 6.

`CCOC(=O)C[CH2][Sn]([Cl])([Cl])[Cl]`: the survivor count under setting [7] is recorded as 0 of 6.

As to `CC(=O)/C(=C\c1cccc(Cl)c1)C(=O)CCN(C)C`, the T/C by setting is: under setting [1], 125 % of control; under setting [4], 132 % of control [5 of 6 alive]. Moreover, the survivor count by setting is: under setting [4], 2 of 6; (dose: 480.0 mg/kg/injection, schedule: Q01DX005 (ip), vehicle: saline with Tween-80) 0 of 6.

On to `CC(C)=CCC(OC(=O)CC(C)(C)O)C1=CC(=O)c2c(O)ccc(O)c2C1=O` (stereo not drawn), for which the survivor count is given as 1 of 6 (dose: 75.0 mg/kg/injection, schedule: Q01DX005 (ip), vehicle: Klucel (hydroxypropylcellulose) (HPC)) and 0 of 6 (dose: 150.0 mg/kg/injection, schedule: Q01DX005 (ip), vehicle: Klucel (hydroxypropylcellulose) (HPC)).

As for `NC(=O)N/N=C1\CCn2cccc21`, the survivor count under setting [4] is on record as 6 of 6.

On to `CCN(CC)CCN(C(=O)C1c2ccccc2Oc2ccccc21)c1ccccc1`, for which the survivor count (dose: 100.0 mg/kg/injection, schedule: Q01DX005 (ip), vehicle: Klucel (hydroxypropylcellulose) (HPC)) is recorded as 0 of 5 and the survivor count under setting [9] is recorded as 0 of 5.

For `[Cu+2].[NH-]C(CCC(N)=O)C(=O)O.[NH-]C(CCC(N)=O)C(=O)O` (stereo not drawn), where the note is “dose: 25.0 mg/kg/injection, schedule: Q04DX003 (ip), vehicle: saline”, the survivor count was 3 of 6.

On to `Cc1ccc(C2=NN(c3ccccc3)C(c3ccccc3)C2NC2CCCCC2)cc1` (stereo not drawn), for which the survivor count under setting [9] is 6 of 6.

`CCN(CC)CCNC1=C(Cl)C(=O)c2ccccc2C1=O`: the survivor count reads like this: (dose: 25.0 mg/kg/injection, schedule: Q01DX009 (ip), vehicle: distilled water + Tween-80) 0 of 6; (dose: 25.0 mg/kg/injection, schedule: Q01DX009 (ip), vehicle: saline) 6 of 6; (dose: 50.0 mg/kg/injection, schedule: Q01DX009 (ip), vehicle: distilled water + Tween-80) 0 of 6; (dose: 100.0 mg/kg/injection, schedule: Q01DX009 (ip), vehicle: distilled water + Tween-80) 0 of 6; (dose: 200.0 mg/kg/injection, schedule: Q01DX009 (ip), vehicle: distilled water + Tween-80) 0 of 6; (dose: 400.0 mg/kg/injection, schedule: Q01DX009 (ip), vehicle: distilled water + Tween-80) 0 of 6.

Take `NC(N)=Nc1c(N)ncnc1N`: the survivor count under setting [1] was 6 of 6.

For the compound `COC1=CC(=N/Cl)/C=CC/1=N/Cl`, the survivor count runs as follows: under setting [5], 0 of 5; under setting [8], 0 of 5; under setting [6], 0 of 5.

Regarding `CCCCCCC[As](C)(=O)O`, the survivor count by setting is: (dose: 50.0 mg/kg/injection, schedule: Q01DX001 (ip), vehicle: Klucel (hydroxypropylcellulose) (HPC)) 1 of 6 and 3 of 6; (dose: 100.0 mg/kg/injection, schedule: Q01DX001 (ip), vehicle: Klucel (hydroxypropylcellulose) (HPC)) 1 of 6 and 2 of 6; (dose: 200.0 mg/kg/injection, schedule: Q01DX001 (ip), vehicle: Klucel (hydroxypropylcellulose) (HPC)) 1 of 6 and 2 of 6.

Turning to `N=C(N)c1nn(C2OC(CO)C(O)C2O)c2nc[nH]c(=O)c12` (stereo not drawn), the survivor count is, setting by setting: (dose: 50.0 mg/kg/injection, schedule: Q01DX005 (ip), vehicle: saline with Tween-80) 5 of 6; under setting [2], 0 of 6.

On to `COc1cc(Br)c(C(=O)Nc2ccc(O)cc2)cc1OC`, for which the T/C is 126 % of control (dose: 50.0 mg/kg/injection, schedule: Q01DX009 (ip), vehicle: other) and 130 % of control (dose: 400.0 mg/kg/injection, schedule: Q01DX009 (ip), vehicle: other).

`NC(=O)c1[nH]cnc1N`: where the note is “dose: 200.0 mg/kg/injection, schedule: Q01DX009 (ip), vehicle: saline”, the survivor count is 6 of 6.
